# Results published in PubChem BioAssay AID493014 (National Center for Advancing Translational Sciences (NCATS), 2011).
# In all, about 340,000 compounds went through this assay and about 170 (0.05%) were called active. The shares of active, inactive and inconclusive entries below differ from those in the screen. Calls follow the shape of the dose curve; as a rule, active = well fitted inhibition curve with a large enough effect in the signal ratio, with a control signal flat (not every such curve was filed as active); inconclusive = small, poorly fitted or top-dose-only effect, or effect the other way, or a change in a side signal; inactive = flat fitted curve, though single readings scatter; the % refers to the signal ratio. Where the call is inconclusive, the potency comes from a doubtful curve fit.
# Test: qHTS Assay to Find Inhibitors of Chronic Active B-Cell Receptor Signaling;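 as to activity change, negative = inhibition: plate controls were basal doxycycline-induced cells for no effect and cells given 10 µM MG132 for full effect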
# Details: ABC-DLBCL IkBa-CBG/CBR reporter, luminescence ratio (green luciferase fused to IkBa over red control in TMD8 lymphoma cells), 4 h; activity change, negative = inhibition: at 46.1 µM (top of the series)
# Outline: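 Concentration-response series (up to 46 uM) were applied to TMD8 dual-reporter cells for 4 h at 37C with doxycycline. Green/red ratio, after filter-overlap correction, defined %Activity; red signal alone was normalised to basal cells and zero luminescence.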
# Potency is read from the fitted curve at half-maximal effect.
SMILES,"activity change, negative = inhibition",Potency
Cc1cc(C)c(NC(=O)CCCn2c(=O)oc3ccccc32)c(C)c1,inconclusive: 8.81%,
Cc1ccc2c(CC(=O)OCC(=O)N(CC(C)C)c3c(N)n(Cc4ccccc4)c(=O)[nH]c3=O)coc2c1,inactive,
Cc1ccc(C(=O)c2cncc(Br)c2)cc1,inconclusive: -0.936%,
Cc1ccc(S(=O)(=O)N2CCC(C(=O)NCc3ccncc3)CC2)cc1,inconclusive: 14.6%,
CCOC(=O)N1CCN(C(=O)c2ccc3c(c2)N(Cc2ccccc2)CCS3)CC1,inactive,
CCOc1c(OC(C)=O)ccc(/C=C/c2ccc3cccc(OC(C)=O)c3n2)c1[N+](=O)[O-],inconclusive: 23.1%,
COc1ccc(S(=O)(=O)N2CCC(C(=O)NN3CCCCC3)CC2)cc1OC,inactive,
CCN(Cc1ccncc1)C(=O)CC1C(=O)NCCN1Cc1ccc(F)c(F)c1 (stereo unspecified),inconclusive: 8.82%,
Cc1cc(C)nc(NC(=O)Cc2cccs2)n1,inconclusive: 1.13%,
Cc1ccc(NC(=O)C(c2ccc(Cl)cc2Cl)N2CCCC2)cc1 (stereo unspecified),inconclusive: 3.46%,
CNc1snc(C)c1C(=O)OCC(=O)c1ccc(Cl)cc1,inconclusive: -9.62%,
CCC(C)C1C(C#N)=C(N)Oc2n[nH]c(-c3ccccc3)c21 (stereo unspecified),inconclusive: -8.47%,
O=[N+]([O-])c1ccc(Cc2ccccn2)cc1,inactive,
O=C(Nc1nc(-c2ccccc2)c(C(=O)c2ccccc2)s1)c1ccc(S(=O)(=O)N2CCCCC2)cc1,inconclusive: 2.12%,
Clc1cccc(Nc2c3c(nc4ncnn24)CCC3)c1,inconclusive: -0.964%,
O=C(Oc1c(CN2CCOCC2)cc(Cl)c2cccnc12)c1cccs1,,"inconclusive: 1.26 µM [cytotoxic, partial curve]"
Nc1ccc2c(c1)nnn2-c1ccccc1,,"inconclusive: 10 µM [falling, partial curve]"
Cc1ccc(-n2cnc3cc(C(=O)NC4CCCCCC4)ccc32)cc1Cl,inactive,
CNc1nc(-c2ccc(OC)cc2)c(-c2ccc(OC)cc2)s1,,"inconclusive: 10 µM [falling, partial curve, poor fit]"
O=C1CC(c2ccccc2)Cc2nc3ncnn3cc21 (stereo unspecified),,"inconclusive: 6.51 µM [falling, partial curve]"
O=C(CCCN1C(=O)/C(=C/c2cccs2)SC1=S)Nc1ccc(C(=O)O)cc1,inconclusive: -17.4%,
COc1ccccc1NC(=O)CNC(=O)c1ccccc1C,,"inconclusive: 5.17 µM [rising, full curve, poor fit]"
COc1ccc(S(=O)(=O)N(CC(=O)NC(C)C)Cc2ccccc2)cc1,,"inconclusive: 20.6 µM [rising, single point]"
Cc1ccc(-n2c(Cc3cccs3)nnc2SCC(=O)Nc2ccc(F)c(F)c2)cc1,,"inconclusive: 4.11 µM [falling, full curve, poor fit]"
COc1cccc(/C=C/C(=O)NNC(=O)c2ccccc2)c1OC,inconclusive: 3.93%,
CCOc1ccc(CCNC(=O)c2cccs2)cc1OCC,inactive,

SMILES,"activity change, negative = inhibition",Potency
O=C1NC(=O)C(c2ccccc2)(c2ccccc2)N1,,"inconclusive: 4.47 µM [falling, partial curve, poor fit]"
CCOC(=O)c1[nH]c2ccccc2c1NC(=O)CCN1CC(C)OC(C)C1 (stereo unspecified),inactive,
Cc1ccccc1OCCNc1cc(N2CC(C)NC(C)C2)ccc1[N+](=O)[O-] (stereo unspecified),inconclusive: -11.7%,
c1ccc2cc(C3CCCCC3)ncc2c1,inconclusive: 4.92%,
O=C1c2ccccc2C(Nc2ccc(S(=O)(=O)N3CCCCCC3)cc2)N1Cc1ccco1 (stereo unspecified),,"inconclusive: 18.4 µM [rising, single point]"
Cn1cccc1/C=C1\SC(=Nc2cccc(O)c2)NC1=O,inconclusive: 224%,
Cc1noc(C)c1COc1ccc(C(=O)NCCOc2ccccc2)cc1,inconclusive: -6.69%,
O=C(COC(=O)CCSc1ccc(F)cc1)NCc1ccc(F)cc1,inactive,
COc1ccc(OC)c(/C=N/NC(=O)c2[nH]ncc2Br)c1,,"inconclusive: 3.55 µM [falling, full curve]"
COC(=O)c1ccccc1NC(=O)COc1ccc2c(c1)OCO2,inconclusive: -5.26%,
CC1CCc2nn(CC(=O)NCCCN3CCOCC3)cc2C1 (stereo unspecified),inconclusive: -5.79%,
CCOC(=O)C1CCN(c2ncnc3c2c(-c2ccccc2)cn3-c2ccc(C)c(Cl)c2)CC1,inactive,
Cc1nn(-c2ccc(C(=O)N3CCN(S(=O)(=O)c4ccccc4C(F)(F)F)CC3)cc2)c(C)c1Cl,inactive,
CCc1nc(N2CCN(C(=O)c3ccco3)CC2)c2c3c(sc2n1)CCCC3,inconclusive: 5.01%,
Cc1nc2ccc(NC(=O)c3ccc4ccccc4n3)cc2s1,inactive,
CCCCc1cc(=O)oc2cc(C)cc(OCC(=O)Nc3ccccn3)c12,inconclusive: -0.141%,
CCN1C(=O)C(Cc2nc3ccccc3c(=O)n2-c2ccccc2)c2ccccc21 (stereo unspecified),,"inconclusive: 11.2 µM [falling, single point]"
COc1cccc(NS(=O)(=O)c2cc3c(cc2C)NC(=O)CO3)c1,,"inconclusive: 11.2 µM [falling, partial curve, poor fit]"
Cc1nc([N+](=O)[O-])cn1CC(O)c1ccc(Cl)cc1 (stereo unspecified),inconclusive: 9.76%,
COc1cc(C(=O)N(C)Cc2cccc(OC)c2OC)ccc1OCC(=O)Nc1cccc(C(F)(F)F)c1,inconclusive: -1.04%,
CC(C)NC(=O)COc1coc(CN2CCN(C(=O)c3ccco3)CC2)cc1=O,inconclusive: 0.954%,
Cc1cc(C)c2oc(C(=O)Nc3ccc(S(=O)(=O)Nc4nccs4)cc3)cc(=O)c2c1,inactive,
O=C(CSc1nnc(-c2ccc3c(c2)OCO3)o1)Nc1c(F)cccc1F,,"inconclusive: 23.1 µM [falling, partial curve]"
O=C(NC(NNc1ccc([N+](=O)[O-])cc1)(C(F)(F)F)C(F)(F)F)c1ccc(Cl)cc1,,"inconclusive: 29.1 µM [falling, single point]"
CCOc1ccc(NC(=S)N2CCC(NC(=O)c3ccccc3C)CC2)cc1,inactive,

# Arranged by SMILES length (largest number first): part of the list above
SMILES,"activity change, negative = inhibition",Potency
CCN1C(=O)C(Cc2nc3ccccc3c(=O)n2-c2ccccc2)c2ccccc21 (stereo unspecified),,"inconclusive: 11.2 µM [falling, single point]"
COc1cccc(NS(=O)(=O)c2cc3c(cc2C)NC(=O)CO3)c1,,"inconclusive: 11.2 µM [falling, partial curve, poor fit]"
Cn1cccc1/C=C1\SC(=Nc2cccc(O)c2)NC1=O,inconclusive: 224%,
